The record followed here is patent publication US7432342B2 (Sequenom, Inc., priority 2002, dated 2008).

The data set in a line: general procedure: Fmoc SPOT synthesis; amino functionalized cellulose membrane. As to conditions: whole synthesis.

Take “biotin-bA-bA-VQGNTDEAQEELAWKIAKMIVSDIMQQ”: the “final HPLC purity” value was 96%.
